PubChem BioAssay AID686938, Drosophila RNAi Screening Center, 2013

Test: 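Looking for CRAC channel components and the factors controlling them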 (primary screen)
Cell system: Drosophila S2R+ cells
Reagents: long dsRNA against Drosophila genes, about 0.25 µg dsRNA per well, roughly 10,000 cells
Duration: 5 days of knock-down before the calcium assay
Treatment: thapsigargin (SERCA pump blocker) to empty calcium stores; entry signal taken 4 min after adding it
Measured: 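Duplicate raw fluo-4 intensities per well from a plate reader, at rest and four minutes after thapsigargin emptied calcium stores; entry-to-rest ratio filled for only some wells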
Direction: calcium entry signal: higher = stronger calcium signal after store depletion; resting calcium signal: higher = higher resting calcium signal
Units: calcium entry signal in fluorescence units; resting calcium signal in fluorescence units
Rule for the call: 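Hit if the duplicate-averaged plate z-score for entry over resting signal is under −3; wells with weak total dye signal (Fmax z < −2) or more than 5 off-targets removed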
Meaning of the calls: active = strongly reduced calcium entry; inactive = no strong reduction
The screen tested about 23,000 reagents; below is a random part of those that have a named target and a result. In the full data, 75 (0.33%) were called active. 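Raw plate signals without normalisation; calls rest on plate z-scores that were not deposited; ratio present for only 364 wells.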 Entries without a mark were called inactive. Not given: the dose of the treatment.

stw (straw) [DRSC04842]
- calcium entry signal, replicate 1: 3.59e7
- calcium entry signal, replicate 2: 4.33e7
- resting calcium signal, replicate 1: 1.88e7
- resting calcium signal, replicate 2: 1.90e7

stw (straw) [DRSC04843]
- calcium entry signal, replicate 1: 3.47e7
- calcium entry signal, replicate 2: 3.99e7
- resting calcium signal, replicate 1: 1.86e7
- resting calcium signal, replicate 2: 1.84e7

stw (straw) [DRSC22527]
- calcium entry signal, replicate 1: 3.20e7
- calcium entry signal, replicate 2: 2.89e7
- resting calcium signal, replicate 1: 1.64e7
- resting calcium signal, replicate 2: 1.22e7

CG7557 [DRSC10878]
- calcium entry signal, replicate 1: 4.78e7
- calcium entry signal, replicate 2: 3.08e7
- resting calcium signal, replicate 1: 2.92e7
- resting calcium signal, replicate 2: 1.36e7

CG15561 [DRSC15100]
- calcium entry signal, replicate 1: 4.97e7
- calcium entry signal, replicate 2: 4.97e7
- resting calcium signal, replicate 1: 2.44e7
- resting calcium signal, replicate 2: 2.06e7

CG13133 [DRSC02230]
- calcium entry signal, replicate 1: 5.74e7
- calcium entry signal, replicate 2: 5.60e7
- resting calcium signal, replicate 1: 1.84e7
- resting calcium signal, replicate 2: 2.26e7

Septin1 (Septin 1) [DRSC20573]
- calcium entry signal, replicate 1: 4.75e7
- calcium entry signal, replicate 2: 3.86e7
- resting calcium signal, replicate 1: 2.40e7
- resting calcium signal, replicate 2: 1.86e7

CG18132 [DRSC00518]
- calcium entry signal, replicate 1: 4.48e7
- calcium entry signal, replicate 2: 6.04e7
- resting calcium signal, replicate 1: 1.99e7
- resting calcium signal, replicate 2: 2.49e7

Ugt35E1 (UDP-glycosyltransferase family 35 member E1) [DRSC15193]
- calcium entry signal, replicate 1: 2.59e7
- calcium entry signal, replicate 2: 2.23e7
- resting calcium signal, replicate 1: 1.25e7
- resting calcium signal, replicate 2: 1.29e7

CG5391 [DRSC15790]
- calcium entry signal, replicate 1: 3.85e7
- calcium entry signal, replicate 2: 4.28e7
- resting calcium signal, replicate 1: 5.10e7
- resting calcium signal, replicate 2: 1.75e7

CG8248 [DRSC07124]
- calcium entry signal, replicate 1: 4.66e7
- calcium entry signal, replicate 2: 4.22e7
- resting calcium signal, replicate 1: 2.02e7
- resting calcium signal, replicate 2: 1.92e7

Oxp (Oxpecker) [DRSC06712]
- calcium entry signal, replicate 1: 4.93e7
- calcium entry signal, replicate 2: 5.31e7
- resting calcium signal, replicate 1: 2.07e7
- resting calcium signal, replicate 2: 2.51e7

boca [DRSC06408]
- calcium entry signal, replicate 1: 4.85e7
- calcium entry signal, replicate 2: 4.22e7
- resting calcium signal, replicate 1: 2.30e7
- resting calcium signal, replicate 2: 1.97e7

CR41501 (pseudo) [DRSC07785]
- calcium entry signal, replicate 1: 3.56e7
- calcium entry signal, replicate 2: 4.00e7
- resting calcium signal, replicate 1: 1.57e7
- resting calcium signal, replicate 2: 1.94e7

Laid out differently: results already given.
| target | DRSC id | calcium entry signal, replicate 1 | calcium entry signal, replicate 2 | resting calcium signal, replicate 1 | resting calcium signal, replicate 2 |
| --- | --- | --- | --- | --- | --- |
| CG13133 | DRSC02230 | 5.74e7 | 5.60e7 | 1.84e7 | 2.26e7 |
| Septin1 (Septin 1) | DRSC20573 | 4.75e7 | 3.86e7 | 2.40e7 | 1.86e7 |
